These are yes or no findings as the source states them, for the method shown. Some results given as binding are weak or reduced against the parent protein; the word gives no strength.

Chains of the proteins cited; added tags and fusions are not shown.
UniProt P67809: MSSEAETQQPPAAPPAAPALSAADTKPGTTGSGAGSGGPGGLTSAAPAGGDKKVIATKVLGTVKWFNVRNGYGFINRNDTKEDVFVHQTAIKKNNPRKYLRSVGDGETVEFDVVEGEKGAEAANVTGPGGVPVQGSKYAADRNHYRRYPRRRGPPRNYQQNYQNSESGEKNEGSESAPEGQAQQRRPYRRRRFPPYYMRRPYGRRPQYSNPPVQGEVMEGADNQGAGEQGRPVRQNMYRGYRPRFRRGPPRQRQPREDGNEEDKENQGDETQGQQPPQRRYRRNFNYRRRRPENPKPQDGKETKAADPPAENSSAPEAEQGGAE
UniProt P11940: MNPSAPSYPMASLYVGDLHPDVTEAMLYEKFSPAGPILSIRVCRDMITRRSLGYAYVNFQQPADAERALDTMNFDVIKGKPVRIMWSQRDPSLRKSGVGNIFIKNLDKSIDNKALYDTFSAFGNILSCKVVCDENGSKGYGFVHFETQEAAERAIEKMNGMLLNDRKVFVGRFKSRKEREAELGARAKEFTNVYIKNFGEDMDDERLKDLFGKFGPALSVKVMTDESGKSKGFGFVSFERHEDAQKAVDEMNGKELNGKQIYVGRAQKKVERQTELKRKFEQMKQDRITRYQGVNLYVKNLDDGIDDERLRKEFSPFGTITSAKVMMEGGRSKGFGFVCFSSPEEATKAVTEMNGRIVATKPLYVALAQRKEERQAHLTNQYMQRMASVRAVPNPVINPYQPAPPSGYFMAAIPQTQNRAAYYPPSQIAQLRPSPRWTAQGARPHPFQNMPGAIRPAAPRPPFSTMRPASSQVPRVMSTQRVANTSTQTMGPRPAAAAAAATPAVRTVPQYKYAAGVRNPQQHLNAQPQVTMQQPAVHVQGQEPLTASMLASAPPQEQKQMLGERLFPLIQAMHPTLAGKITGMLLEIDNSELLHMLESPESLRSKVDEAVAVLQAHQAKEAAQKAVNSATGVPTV

Data on one substance can be found in paper doi:10.1101/558098.

The target in this assay is mCherry-tagged YBX1 (human) (UniProt P67809). Kind of assay: fluorescence cross-correlation spectroscopy.

As to “PABPC1-GFP (poly(A) binding protein C1 with C-terminal GFP) (from UniProt P11940 1-636)”, the binding entry was “binds”.
